According to article PMC7280298:
No constants are given. Whether binding was seen depends on the method and setting. In cells and extracts the contact can be indirect. Some results given as binding are weak or reduced against the parent protein; the word gives no strength. Sequences can lack the tags named with a protein.

Target: T1, 9xMyc-NRP1 (NAP1-RELATED PROTEIN 1, N-terminally 9xMyc-tagged) (Arabidopsis) (UniProt Q9CA59)
T1 sequence: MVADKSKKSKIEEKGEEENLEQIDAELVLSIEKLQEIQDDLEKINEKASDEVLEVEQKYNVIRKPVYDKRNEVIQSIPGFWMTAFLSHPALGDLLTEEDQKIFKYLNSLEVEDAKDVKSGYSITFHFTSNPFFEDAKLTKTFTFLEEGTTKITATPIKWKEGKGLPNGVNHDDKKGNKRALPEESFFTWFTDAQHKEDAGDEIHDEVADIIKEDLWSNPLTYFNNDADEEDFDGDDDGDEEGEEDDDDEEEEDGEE
Assay: co-IP; F1 lines expressing both NRP2-3xFlag and 9xMyc-NRP1; anti c-Myc magnetic beads; IP buffer, overnight at 4 °C; western blot

B1: NRP2-3xFlag (NAP1-RELATED PROTEIN 2, C-terminally 3xFlag-tagged) (protein, UniProt Q8LC68 1-255)
chain: MVTDKSKKAKTEEENVEQIDAELVLSIEKLQEIQDDLEKINEKASDEVLEVEQKYNVIRKPVYDKRNEIIKTIPDFWLTAFLSHPALGELLTEEDQKIFKYLSSLDVEDAKDVKSGYSITFSFNPNPFFEDGKLTKTFTFLEEGTTKITATPIKWKEGKGLANGVNHEKNGNKRALPEESFFTWFSDAQHKEDVEDEMQDEVADIIKEDLWPNPLTYFNNDADEEDFDGDDDGDEEEKEGDSDEDDDEEDEVGEE
binding: binds
